Article doi:10.1101/2024.11.08.622053

B1: PBP1a tagged with SmBit at its C-terminus (enzyme, UniProt Q8DR59 1-719)
chain: MNKPTILRLIKYLSISFLSLVIAAIVLGGGVFFYYVSKAPSLSESKLVATTSSKIYDNKNQLIADLGSERRVNAQANDIPTDLVKAIVSIEDHRFFDHRGIDTIRILGAFLRNLQSNSLQGGSALTQQLIKLTYFSTSTSDQTISRKAQEAWLAIQLEQKATKQEILTYYINKVYMSNGNYGMQTAAQNYYGKDLNNLSLPQLALLAGMPQAPNQYDPYSHPEAAQDRRNLVLSEMKNQGYISAEQYEKAVNTPITDGLQSLKSASNYPAYMDNYLKEVINQVEEETGYNLLTTGMDVYTNVDQEAQKHLWDIYNTDEYVAYPDDELQVASTIVDVSNGKVIAQLGARHQSSNVSFGINQAVETNRDWGSTMKPITDYAPALEYGVYESTATIVHDEPYNYPGTNTPVYNWDRGYFGNITLQYALQQSRNVPAVETLNKVGLNRAKTFLNGLGIDYPSIHYSNAISSNTTESDKKYGASSEKMAAAYAAFANGGTYYKPMYIHKVVFSDGSEKEFSNVGTRAMKETTAYMMTDMMKTVLSYGTGRNAYLAWLPQAGKTGTSNYTDEEIENHIKTSQFVAPDELFAGYTRKYSMAVWTGYSNRLTPLVGNGLTVAAKVYRSMMTYLSEGSNPEDWNIPEGLYRNGEFVFKNGARSTWSSPAPQQPPSTESSSSSSDSSTSQSSSTTPSTNNSTTTNPNNNTQQSNTTPDQQNQNPQPAQP
B2: PgdA tagged with SmBit at its C-terminus (enzyme, UniProt Q8DP63 1-463)
chain: MNKSRLGRGRHGKTRHVLLALIGILAISICLLGGFIAFKIYQQKSFEQKIESLKKEKDDQLSEGNQKEHFRQGQAEVIAYYPLQGEKVISSVRELINQDVKDKLESKDNLVFYYTEQEESGLKGVVNRNVTKQIYDLVAFKIEETEKTSLGKVHLTEDGQPFTLDQLFSDASKAKEQLIKELTSFIEDKKIEQDQSEQIVKNFSDQDLSAWNFDYKDSQIILYPSPVVENLEEIALPVSAFFDVIQSSYLLEKDAALYQSYFDKKHQKVVALTFDDGPNPATTPQVLETLAKYDIKATFFVLGKNVSGNEDLVKRIKSEGHVVGNHSWSHPILSQLSLDEAKKQITDTEDVLTKVLGSSSKLMRPPYGAITDDIRNSLDLSFIMWDVDSLDWKSKNEASILTEIQHQVANGSIVLMHDIHSPTVNALPRVIEYLKNQGYTFVTIPEMLNTRLKAHELYYSRDE
B3: RodZ tagged with SmBit at its C-terminus (protein, UniProt Q8DMX7 1-276)
chain: MTSMRKKTIGEVLRLARINQGLSLDELQKKTEIQLDMLEAMEADDFDQLPSPFYTRSFLKKYAWAVELDDQIVLDAYDSGSMITYEEVDVDEDELTGRRRSSKKKKKKTSFLPLFYFILFALSILIFVTYYVWNYIQTQPEEPSLSNYSVVQSTSSTSSVPHSSSSSSSSIESAISVSGEGNHVEIAYKTSKETVKLQLAVSDVTSWVSVSESELEGGVTLSPKKKSAEATVATKSPVTITLGVVKGVDLTVDNQTVDLSKLTAQTGQITVTFTKN
B4: PBP1a tagged with SmBit at its N-terminus (enzyme, UniProt Q8DR59 1-719)
chain: MNKPTILRLIKYLSISFLSLVIAAIVLGGGVFFYYVSKAPSLSESKLVATTSSKIYDNKNQLIADLGSERRVNAQANDIPTDLVKAIVSIEDHRFFDHRGIDTIRILGAFLRNLQSNSLQGGSALTQQLIKLTYFSTSTSDQTISRKAQEAWLAIQLEQKATKQEILTYYINKVYMSNGNYGMQTAAQNYYGKDLNNLSLPQLALLAGMPQAPNQYDPYSHPEAAQDRRNLVLSEMKNQGYISAEQYEKAVNTPITDGLQSLKSASNYPAYMDNYLKEVINQVEEETGYNLLTTGMDVYTNVDQEAQKHLWDIYNTDEYVAYPDDELQVASTIVDVSNGKVIAQLGARHQSSNVSFGINQAVETNRDWGSTMKPITDYAPALEYGVYESTATIVHDEPYNYPGTNTPVYNWDRGYFGNITLQYALQQSRNVPAVETLNKVGLNRAKTFLNGLGIDYPSIHYSNAISSNTTESDKKYGASSEKMAAAYAAFANGGTYYKPMYIHKVVFSDGSEKEFSNVGTRAMKETTAYMMTDMMKTVLSYGTGRNAYLAWLPQAGKTGTSNYTDEEIENHIKTSQFVAPDELFAGYTRKYSMAVWTGYSNRLTPLVGNGLTVAAKVYRSMMTYLSEGSNPEDWNIPEGLYRNGEFVFKNGARSTWSSPAPQQPPSTESSSSSSDSSTSQSSSTTPSTNNSTTTNPNNNTQQSNTTPDQQNQNPQPAQP
B5: PgdA tagged with SmBit at its N-terminus (enzyme, UniProt Q8DP63 1-463)
chain: MNKSRLGRGRHGKTRHVLLALIGILAISICLLGGFIAFKIYQQKSFEQKIESLKKEKDDQLSEGNQKEHFRQGQAEVIAYYPLQGEKVISSVRELINQDVKDKLESKDNLVFYYTEQEESGLKGVVNRNVTKQIYDLVAFKIEETEKTSLGKVHLTEDGQPFTLDQLFSDASKAKEQLIKELTSFIEDKKIEQDQSEQIVKNFSDQDLSAWNFDYKDSQIILYPSPVVENLEEIALPVSAFFDVIQSSYLLEKDAALYQSYFDKKHQKVVALTFDDGPNPATTPQVLETLAKYDIKATFFVLGKNVSGNEDLVKRIKSEGHVVGNHSWSHPILSQLSLDEAKKQITDTEDVLTKVLGSSSKLMRPPYGAITDDIRNSLDLSFIMWDVDSLDWKSKNEASILTEIQHQVANGSIVLMHDIHSPTVNALPRVIEYLKNQGYTFVTIPEMLNTRLKAHELYYSRDE
B6: RodZ tagged with SmBit at its N-terminus (protein, UniProt Q8DMX7 1-276)
chain: MTSMRKKTIGEVLRLARINQGLSLDELQKKTEIQLDMLEAMEADDFDQLPSPFYTRSFLKKYAWAVELDDQIVLDAYDSGSMITYEEVDVDEDELTGRRRSSKKKKKKTSFLPLFYFILFALSILIFVTYYVWNYIQTQPEEPSLSNYSVVQSTSSTSSVPHSSSSSSSSIESAISVSGEGNHVEIAYKTSKETVKLQLAVSDVTSWVSVSESELEGGVTLSPKKKSAEATVATKSPVTITLGVVKGVDLTVDNQTVDLSKLTAQTGQITVTFTKN

Substrate: S protein tagged with LgBit at its C-terminus (S. pneumoniae)
Experiment: split reporter

Question: B1 was tested. Which binding did it give?
Answer: The binding was “binds”.

Question: B2 was tested. Which binding did it give?
Answer: Its binding is “binds”.

Question: B3 was tested. Which binding did it give?
Answer: The binding was “binds”.

Substrate: S protein tagged with LgBit at its N-terminus (S. pneumoniae)
Experiment: split reporter

Question: Which binding does the source give for B4 here?
Answer: The binding was “binds”.

Question: With B5 as the binder, how does the binding read?
Answer: Its binding is “binds”.

Question: Which binding does the source give for B6 here?
Answer: Its binding is “binds”.

These are yes or no findings as the source states them, for the method shown. In cells and extracts the contact can be indirect. Binding calls can cover weak binding; strength is not graded here. Where a sequence is shown, tags or fusion partners need not be part of it.
